Measured values as given in PubChem BioAssay AID1259354 (Paczesny and Yang Labs, IUPUI and University of Michigan, 2018).
The whole screen tested about 78,000 compounds, of which about 1,800 (2.3%) were called active. The inconclusive results got no clear call from the source; some entries with a clear call stand among them for comparison. Rule as the data show it: active = inhibition above about 30%; inconclusive = mostly about 10% to 28%; inactive = weaker than that.

By UniProt entry, the sequences of proteins in these tests, tags left out. Where a name states a change or a piece, a line headed by the entry shows the natural chain unless it says otherwise.
UniProt Q01638: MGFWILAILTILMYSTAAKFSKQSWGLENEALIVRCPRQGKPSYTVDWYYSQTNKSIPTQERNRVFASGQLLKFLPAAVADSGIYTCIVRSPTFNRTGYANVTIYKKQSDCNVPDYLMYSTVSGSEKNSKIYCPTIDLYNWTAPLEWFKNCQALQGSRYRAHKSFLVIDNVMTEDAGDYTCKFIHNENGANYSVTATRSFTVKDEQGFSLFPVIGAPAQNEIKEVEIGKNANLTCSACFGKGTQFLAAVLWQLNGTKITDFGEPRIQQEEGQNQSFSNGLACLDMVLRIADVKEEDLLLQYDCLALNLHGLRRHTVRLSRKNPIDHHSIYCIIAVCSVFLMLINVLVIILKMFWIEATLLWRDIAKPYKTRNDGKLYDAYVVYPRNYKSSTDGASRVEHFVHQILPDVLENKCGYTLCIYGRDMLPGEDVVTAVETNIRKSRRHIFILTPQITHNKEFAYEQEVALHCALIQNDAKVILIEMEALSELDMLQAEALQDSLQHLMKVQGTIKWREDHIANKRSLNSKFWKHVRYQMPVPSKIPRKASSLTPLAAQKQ

The molecules below were run against Interleukin-1 receptor-like 1 (Homo sapiens) (UniProt Q01638) (assay: blocks human ST2 binding to IL-33, primary screen, biochemical, AlphaLISA (AID 1259354)). Conditions: AlphaLISA ST2-Fc/biotin-IL-33 interaction, 1 h; at 17 µM, hits give high values.
`N#CC1=C(N)NC(SCc2ccccc2)=C(C#N)C12CCCCC2` was tested, and the inhibition was inconclusive: 13%.
For `COc1cccc(-c2nc3ccc(C(=O)NCCN4CCCC4=O)cc3o2)c1`, the inhibition was “inactive”.
In the case of `CCc1ncc(C(=O)N2CCC(n3cc(-c4ccccn4)nn3)CC2)cn1`, the inhibition is reported as inconclusive: 16%.
With `COc1ccc(C(=O)Nc2cccc(C)c2C)cc1` the inhibition was “inactive”.
In the case of `O=C1Nc2cc(C(=O)N3CCCC3)ccc2SC1N1CCOCC1` (stereo unspecified), the inhibition is reported as inconclusive: 10%.
`Cc1ccc(NC(=O)CSc2n[nH]c(C)c2[N+](=O)[O-])cc1` was tested, and the inhibition was inconclusive: 14%.
With `COc1cccc(C2CC(=O)C3=C(C2)Nc2ccccc2NC3c2cc3c(cc2Cl)OCO3)c1` (stereo unspecified) the inhibition was inconclusive: 26%.
With `Cc1cc(Br)ccc1NC(=O)C(NS(=O)(=O)c1cccs1)c1ccccc1` (stereo unspecified) the inhibition was inconclusive: 10%.
`Cc1cccc(C2CC(c3ccccc3)Nc3nc(N)nn32)c1` (stereo unspecified) was tested, and the inhibition was inconclusive: 17%.
`Cc1ccc(Cc2c(C)nc3nc(SCC(=O)NCCN4CCOCC4)nn3c2C)cc1` was tested, and the inhibition was inconclusive: 12%.
For `O=C(CSc1ncnc2sc3c(c12)CCCC3)c1ccc2c(c1)OCO2`, the inhibition was “inactive”.
In the case of `COc1ccc(Nc2ncnc(N)c2[N+](=O)[O-])cc1Cl`, the inhibition is reported as “inactive”.
`O=C(C1CCN(S(=O)(=O)c2cccc3cccnc23)CC1)N1CCN(c2ccccn2)CC1` was tested, and the inhibition was inconclusive: 10%.
For `N/C(=N/OC(=O)c1cccs1)c1cccc([N+](=O)[O-])c1`, the inhibition was inconclusive: 17%.
For `Cc1ccc(Cn2c(CNC(=O)Cc3cccs3)nc3cccnc32)cc1`, the inhibition was “inactive”.
With `Cc1ccccc1-n1cc(-c2ccnc(NC3CCOCC3)n2)cn1` the inhibition was inconclusive: 14%.
`CCc1nccc(-c2c(-c3ccccc3)ncn2C2CC(=O)N(CC)C2)n1` (stereo unspecified) was tested, and the inhibition was inconclusive: 10%.
`N#CC1=C([S-])N[C@@](O)(c2ccccc2)[C@H]([n+]2ccc3ccccc3c2)[C@H]1c1ccc(F)cc1` was tested, and the inhibition was inconclusive: 12%.
For `O=C(Nc1cccc(NC(=O)c2ccc(Br)o2)n1)c1ccc(Br)o1`, the inhibition was inconclusive: 12%.
With `O=C(CCS(=O)(=O)c1cccc2nsnc12)N1CC(=O)N(CCc2ccccc2)C(=O)C1` the inhibition was inconclusive: 14%.
With `Cn1cc(C(c2cccs2)c2cn(C)c3ccccc23)c2ccccc21` the inhibition was inconclusive: 10%.
`O=C(C1CC1)N1CCC(N2CCN(c3nccc4ccccc34)CC2)CC1` was tested, and the inhibition was inconclusive: 10%.
With `Cc1cc(C)c(S(=O)(=O)N=C2C=CC(=O)C(Br)=C2)cc1C` the inhibition was inconclusive: 18%.
For `O=c1oc2ccc(Br)cc2cc1-c1csc(-c2cc3ccccc3oc2=O)n1`, the inhibition was “inactive”.
`COCC(=O)N[C@H]1CCN2C(=O)c3cc(-c4cccc(C)c4C)ccc3NC(=O)[C@@H]2C1` was tested, and the inhibition was “inactive”.
In the case of `CC(C)(C)C(=O)Cn1c(=O)n(-c2ccc(F)c(Cl)c2)c(=O)c2sccc21`, the inhibition is reported as inconclusive: 10%.
`COc1ccc(C(=O)Cn2c(C)nc([N+](=O)[O-])c2Br)cc1` was tested, and the inhibition was inconclusive: 15%.
For `COCCN(Cc1cnn(C)c1)C(=O)c1cccc(N)c1`, the inhibition was inconclusive: 17%.
`N#C/C(=C\c1ccco1)c1nc2ccccc2[nH]1` was tested, and the inhibition was inconclusive: 15%.
For `CCc1ccc(S(=O)(=O)n2cnc3cc(C)c(C)cc32)cc1`, the inhibition was inconclusive: 12%.
In the case of `CC(=O)C1=NN(c2ccc(C)cc2)C2C(=O)N(c3ccccc3Cl)C(=O)C12` (stereo unspecified), the inhibition is reported as “inactive”.
In the case of `O=C1CCC(C(=O)N2CCSCC2)CN1CCN1CCOCC1` (stereo unspecified), the inhibition is reported as “inactive”.
For `O=S(=O)(N1CCCC1)N1CCC2(CCCN(Cc3ccc(F)cc3)C2)C1` (stereo unspecified), the inhibition was inconclusive: 15%.
`Cc1nc2c(ccc3nc(NC(=O)c4ccc5c(c4)OCCO5)sc32)s1` was tested, and the inhibition was “inactive”.
`O=C(C1CCCN(C2CCN(c3ncnc4ccsc34)CC2)C1)N1CCCC1` (stereo unspecified) was tested, and the inhibition was inconclusive: 16%.
For `Cc1ncc(C(=O)NCCOc2ccccc2F)c(C)n1`, the inhibition was inconclusive: 18%.
For `COc1ccc(-c2cc(C(F)(F)F)nc(NCC3CCCO3)n2)cc1` (stereo unspecified), the inhibition was “inactive”.
In the case of `O=[N+]([O-])c1ccc(CN2CCCCCC2)s1`, the inhibition is reported as inconclusive: 14%.
For `COc1ccc(NC(=O)CC(=O)N2CCC(Oc3ccc(C)cc3)CC2)c(OC)c1`, the inhibition was inconclusive: 12%.
In the case of `CCC(C)CC(C)CC(CO)CC(C)/C=C(C)/C=C(/CC(C)C(=O)O)C(=O)O` (stereo unspecified), the inhibition is reported as “inactive”.
For `CC(C)C1Oc2ccc(Cl)cc2C2CC(c3cccs3)=NN21` (stereo unspecified), the inhibition was active: 34%.
`Cc1nc(Oc2ccc3ccc(=O)oc3c2)c2c3c(sc2n1)CCC3` was tested, and the inhibition was “inactive”.
With `Fc1ccc(-c2nc3cc(N=Cc4ccncc4)ccc3o2)cc1` the inhibition was inconclusive: 14%.
`COc1ccc(N2C(=O)S/C(=C\c3ccc(O)cc3)C2=O)cc1` was tested, and the inhibition was “inactive”.
For `CN(CCc1cn[nH]c1)Cc1nnc(CC2CCNCC2)n1C`, the inhibition was inconclusive: 23%.
In the case of `Clc1ccc(C2CCCN(Cc3nc(-c4cnccn4)no3)C2)cc1` (stereo unspecified), the inhibition is reported as inconclusive: 23%.
`COCCN(C)C(=O)c1cccc(-n2cc(NC(=O)Cc3cccc(C)c3)cn2)c1` was tested, and the inhibition was “inactive”.
For `Cn1ccnc1CN1CCN(C(=O)c2cn(C/C=C/c3ccccc3)nn2)CC1`, the inhibition was inconclusive: 11%.
With `O=C(Nc1ccccc1Cl)c1ccccc1[N+](=O)[O-]` the inhibition was “inactive”.
In the case of `CN(C)CCNC(=O)C1(O)c2ccccc2NC(=O)N1c1ccc(Cl)c(Cl)c1` (stereo unspecified), the inhibition is reported as “inactive”.
`CC1CCc2c(sc(NC(=O)c3cc(=O)c4ccccc4o3)c2C#N)C1` (stereo unspecified) was tested, and the inhibition was “inactive”.
`CC(C)(O)C1Cc2c(ccc3ccc(=O)oc23)O1` (stereo unspecified) was tested, and the inhibition was inconclusive: 11%.
With `Cc1ccc2nc(SCC(=O)c3ccc(Cl)cc3)[nH]c2c1` the inhibition was inconclusive: 11%.
With `CC1(C)Cc2cc(CN3CCN(c4cncc(C(N)=O)n4)CC3)ccc2O1` the inhibition was inconclusive: 16%.
With `Cc1nc(C(C)C)sc1C(=O)N1CCCC2(C1)C(=O)N(C)c1ccccc12` (stereo unspecified) the inhibition was inconclusive: 18%.
`Cc1[nH]c2ccc(Cl)cc2c(=O)c1CN(C)Cc1ccccc1` was tested, and the inhibition was “inactive”.
With `Cn1c(=O)n(Cc2ccc(Br)cc2)c(=O)c2c1nc1n2CCN1c1ccccc1` the inhibition was inconclusive: 18%.
With `CC(=O)c1cc(CC(=O)NCc2ccsc2)cs1` the inhibition was inconclusive: 18%.
With `O=C(CSC1CC(=O)N(c2ccccc2)C1=O)Nc1ccc(Br)cc1` (stereo unspecified) the inhibition was “inactive”.
For `COc1ccc(S(=O)(=O)N2CCCC(C(F)(F)F)C2)cc1` (stereo unspecified), the inhibition was inconclusive: 18%.
With `CCCC(=O)Nc1c(C(=O)OCC)[nH]c2ccc(F)cc12` the inhibition was inconclusive: 11%.
`Cc1cccc(-n2cc(CN(C)C(C)C(=O)Nc3nccs3)cn2)c1` (stereo unspecified) was tested, and the inhibition was inconclusive: 14%.
For `C=C(C)COc1c(CN2CCCC2c2c(C)noc2C)cccc1OC` (stereo unspecified), the inhibition was inconclusive: 10%.
With `N#CC1=C(N)OC2=C(C(=O)CCC2)C1c1cccc(Br)c1` (stereo unspecified) the inhibition was “inactive”.
In the case of `COc1ccc(/C=C2\SC(N3CC(C)OC(C)C3)=NC2=O)cc1` (stereo unspecified), the inhibition is reported as inconclusive: 14%.
With `COC(=O)C1C(=O)C2=C(CC1C)NC(C)=C(C(=O)OC(C)C)C2c1ccc(C)cc1` (stereo unspecified) the inhibition was “inactive”.
`COc1cccc(N2C(=O)c3ccc(-c4nc5ccccc5c(=O)o4)cc3C2=O)c1` was tested, and the inhibition was “inactive”.
With `O=C(NC1CCCCCCC1)c1cccn2c(=O)c3cc4ccccc4cc3nc12` the inhibition was inconclusive: 28%.
In the case of `Cc1cc(Br)ccc1OCC(=O)O/N=C(/N)c1ccccn1`, the inhibition is reported as inconclusive: 11%.
With `Cc1ccccc1NC(=O)c1cncc(Br)c1` the inhibition was “inactive”.
In the case of `CCC1CN(C(=O)Cn2nc(C)cc2N)CCC(=O)N1Cc1ccccc1` (stereo unspecified), the inhibition is reported as inconclusive: 12%.
For `CCOc1cc(C(Nc2cc(C)ccn2)c2ccc3cccnc3c2O)ccc1O` (stereo unspecified), the inhibition was inconclusive: 14%.
`Cc1cc(N(C)C)nc(Nc2ccc(NC(=O)CC3CCCC3)cc2)n1` was tested, and the inhibition was “inactive”.
`O=C(O)c1cccc(NC(=O)c2ccc(S(=O)(=O)N3CCCCC3)cc2)c1` was tested, and the inhibition was “inactive”.
With `N#CCN(CC#N)C(=O)c1ccc([N+](=O)[O-])cc1Cl` the inhibition was “inactive”.
In the case of `OCC1(Cc2ccccc2)CCN(Cc2cnc(-c3cccc4ccccc34)nc2)CC1`, the inhibition is reported as inconclusive: 19%.
With `CC(=O)NC(=Nc1nc(C)cc(C)n1)Nc1ccccc1C` the inhibition was inconclusive: 10%.
`CC(C)Cn1cc(C(=O)NCc2ccco2)c(=O)c(C(=O)N2CCC(Cc3ccccc3)CC2)c1` was tested, and the inhibition was inconclusive: 13%.
`Cn1c(=O)c2c(nc(NCc3ccccc3)n2Cc2ccc(Cl)c(Cl)c2)n(C)c1=O` was tested, and the inhibition was inconclusive: 20%.
`CCOc1cc(C(=O)Nc2c3c(nn2C(C)(C)C)CSC3)cc(OCC)c1OCC` was tested, and the inhibition was inconclusive: 11%.
For `CC(=O)N1CCc2cc(Br)cc(S(=O)(=O)CC(=O)Nc3cc(C)ccc3C)c21`, the inhibition was “inactive”.
`CC(=O)Nc1ccc(NC2=CC(=NS(=O)(=O)c3ccc(C)cc3)c3ccccc3C2=O)cc1` was tested, and the inhibition was active: 48%.
`Cc1ccc2[nH]c(CNC(C)c3cnn(-c4cccc(F)c4)c3C)c(C)c2c1` (stereo unspecified) was tested, and the inhibition was active: 32%.
For `CSCCC(=O)N(Cc1ccsc1)CC(C)C`, the inhibition was inconclusive: 10%.
`CC(=O)NC12CC3CCC(CC(C3)C1)C2` was tested, and the inhibition was “inactive”.
With `O=C(Nc1nccs1)c1ccc(NC(=O)C(c2ccccc2)c2ccccc2)cc1` the inhibition was “inactive”.
In the case of `COC(=O)c1sc2ccccc2c1NC(=O)c1coc2ccccc2c1=O`, the inhibition is reported as inconclusive: 12%.
With `COc1cc(C)ccc1OCCOc1cccc(C)c1` the inhibition was “inactive”.
`COc1ncccc1-c1cncc(C(=O)N2CCCCC2)n1` was tested, and the inhibition was inconclusive: 16%.
In the case of `CCOC(=O)c1nn(CCc2scnc2C)c2c1CN(C(=O)CSc1ccccn1)CC2`, the inhibition is reported as inconclusive: 18%.
With `O=[N+]([O-])c1cccc(C=Nc2ccccc2Cl)c1O` the inhibition was “inactive”.
With `CC(C)(C)n1nc2c(c1NC(=O)COc1ccc(Cl)cc1Cl)CSC2` the inhibition was inconclusive: 11%.
`COCc1c(C(=O)N2[C@@H]3CC[C@H]2CN(C)C(=O)C3)noc1C` was tested, and the inhibition was inconclusive: 16%.
With `CCCN(CCO)Cc1ccc(Br)o1` the inhibition was inconclusive: 11%.
For `NC(=O)c1ccnc(N2CC[C@@H](N3CCOCC3)[C@H](O)C2)c1`, the inhibition was inconclusive: 11%.
With `CSc1ccc(-c2nc(CSCC(=O)NCCc3ccc(Cl)cc3)c(C)o2)cc1` the inhibition was “inactive”.
